Results are given in words; binding and its absence hold for the method and conditions named. Where a sequence is shown, tags or fusion partners need not be part of it.
Target: GST-CT082_(Δ330–450) (Chlamydia trachomatis L2/434)
Assay: far-Western, overlay or dot blot; extracts of E. coli expressing GST fusions resolved by SDS-PAGE and blotted on nitrocellulose; membrane probed with 1.2 µg purified (6x)His-CT584 in 20 mM HEPES pH 7.5, 50 mM KCl, 10 mM MgCl2, 1 mM DTT, 0.1% Nonidet P-40, 16 h at 4°C; detection with anti-His; only the binder purified

B1: (6x)His-CT584 (protein, UniProt O84588 1-183)
chain: MTTKPKTLEIDNNTFLLLEGNLKRIFATPIGYTTFREFQNVVFNCAQGQQELANFLFEMLINGKLLQELPAGQKQSAQSLIVQFMMPIRVAKDIHERGEFINFITSDMLAQQERCVFLNRLSRVDGQEFLLMTDVQNTCHLIRHLLSRLLEAQKNPIGEKNLQEIQEDLDSLRAHFEELTKSV
binding: no binding

Reference: PMC3576375
